Laboratory results: PubChem BioAssay AID1159579 (Peter MacCallum Cancer Centre, 2015)

Assay: 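Find genes whose silencing alters migration of lymphatic endothelial cells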 (follow-up of hits)
System: human dermal lymphatic endothelial cells
Reagents: single siRNA against human genes, 25 nM
Measured: 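Scratch wound imaging measuring area filled by moving cells plus nuclei number, averaged over two wells and scaled to mock-transfected controls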
Direction: migration relative to mock: higher = more migration into the scratch; mean nuclei count: higher = more cells remaining
Active means: 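a ratio of at most 0.6 or at least 1.3 marks altered migration and an active call; a mean nuclei count under 3300 forces an inactive call regardless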
Calls: active = migration changed (impaired or accelerated); inactive = no migration change, or too few cells
In all, the deposit lists about 2,000 reagents; this is a random part of them. 549 of all reagents (27%) count as active. 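Some migration ratios are negative; siRNAs with too few cells are inactive whatever their migration ratio.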 The numbers tell different reagents against one gene apart. Not given: the time to read-out.

{"target": "TMEM121B (transmembrane protein 121B)", "reagent no.": 1, "migration relative to mock": 0.56, "migration and cell number class": "migration reduced", "mean nuclei count": 5827, "Call": "active"}
{"target": "TMEM121B (transmembrane protein 121B)", "reagent no.": 2, "migration relative to mock": 0.72, "migration and cell number class": "no change in migration or cell number", "mean nuclei count": 6658, "Call": "inactive"}
{"target": "TMEM121B (transmembrane protein 121B)", "reagent no.": 3, "migration relative to mock": -0.77, "migration and cell number class": "migration reduced", "mean nuclei count": 3552, "Call": "active"}
{"target": "TMEM121B (transmembrane protein 121B)", "reagent no.": 4, "migration relative to mock": 0.58, "migration and cell number class": "migration reduced", "mean nuclei count": 3661, "Call": "active"}
{"target": "CT47A2 (cancer/testis antigen family 47 member A2)", "reagent no.": 1, "migration relative to mock": 1.04, "migration and cell number class": "no change in migration or cell number", "mean nuclei count": 6489, "Call": "inactive"}
{"target": "CT47A2 (cancer/testis antigen family 47 member A2)", "reagent no.": 2, "migration relative to mock": 0.6, "migration and cell number class": "migration reduced", "mean nuclei count": 5386, "Call": "active"}
{"target": "CT47A2 (cancer/testis antigen family 47 member A2)", "reagent no.": 3, "migration relative to mock": 0.65, "migration and cell number class": "no change in migration or cell number", "mean nuclei count": 5598, "Call": "inactive"}
{"target": "CT47A2 (cancer/testis antigen family 47 member A2)", "reagent no.": 4, "migration relative to mock": 0.88, "migration and cell number class": "no change in migration or cell number", "mean nuclei count": 5751, "Call": "inactive"}
{"target": "LRRC4 (leucine rich repeat containing 4)", "reagent no.": 1, "migration relative to mock": 0.57, "migration and cell number class": "migration reduced", "mean nuclei count": 5728, "Call": "active"}
{"target": "LRRC4 (leucine rich repeat containing 4)", "reagent no.": 2, "migration relative to mock": 0.85, "migration and cell number class": "no change in migration or cell number", "mean nuclei count": 4031, "Call": "inactive"}
{"target": "LRRC4 (leucine rich repeat containing 4)", "reagent no.": 3, "migration relative to mock": 0.85, "migration and cell number class": "no change in migration or cell number", "mean nuclei count": 5036, "Call": "inactive"}
{"target": "LRRC4 (leucine rich repeat containing 4)", "reagent no.": 4, "migration relative to mock": 0.71, "migration and cell number class": "no change in migration or cell number", "mean nuclei count": 4590, "Call": "inactive"}
{"target": "CCDC102A (coiled-coil domain containing 102A)", "reagent no.": 1, "migration relative to mock": 0.29, "migration and cell number class": "migration reduced", "mean nuclei count": 4328, "Call": "active"}
{"target": "CCDC102A (coiled-coil domain containing 102A)", "reagent no.": 2, "migration relative to mock": 0.7, "migration and cell number class": "no change in migration or cell number", "mean nuclei count": 4474, "Call": "inactive"}
{"target": "CCDC102A (coiled-coil domain containing 102A)", "reagent no.": 3, "migration relative to mock": 1.02, "migration and cell number class": "no change in migration or cell number", "mean nuclei count": 4806, "Call": "inactive"}
{"target": "CCDC102A (coiled-coil domain containing 102A)", "reagent no.": 4, "migration relative to mock": 0.98, "migration and cell number class": "no change in migration or cell number", "mean nuclei count": 5581, "Call": "inactive"}
{"target": "C5AR1 (complement C5a receptor 1)", "reagent no.": 1, "migration relative to mock": -0.12, "migration and cell number class": "migration reduced", "mean nuclei count": 3395, "Call": "active"}
{"target": "C5AR1 (complement C5a receptor 1)", "reagent no.": 2, "migration relative to mock": 0.98, "migration and cell number class": "no change in migration or cell number", "mean nuclei count": 6686, "Call": "inactive"}
{"target": "C5AR1 (complement C5a receptor 1)", "reagent no.": 3, "migration relative to mock": 0.17, "migration and cell number class": "migration reduced", "mean nuclei count": 5376, "Call": "active"}
{"target": "C5AR1 (complement C5a receptor 1)", "reagent no.": 4, "migration relative to mock": 0.74, "migration and cell number class": "no change in migration or cell number", "mean nuclei count": 6442, "Call": "inactive"}

Copied from the list:
Entry of C5AR1 (complement C5a receptor 1) #4 in “migration and cell number class”: no change in migration or cell number
Under “Call”, CT47A2 (cancer/testis antigen family 47 member A2) #2 shows active

Continued.
{"target": "PLB1 (phospholipase B1)", "reagent no.": 1, "migration relative to mock": 0.69, "migration and cell number class": "no change in migration or cell number", "mean nuclei count": 4754, "Call": "inactive"}
{"target": "PLB1 (phospholipase B1)", "reagent no.": 2, "migration relative to mock": 0.52, "migration and cell number class": "migration reduced", "mean nuclei count": 5389, "Call": "active"}
{"target": "PLB1 (phospholipase B1)", "reagent no.": 3, "migration relative to mock": 0.44, "migration and cell number class": "migration reduced", "mean nuclei count": 4559, "Call": "active"}
{"target": "PLB1 (phospholipase B1)", "reagent no.": 4, "migration relative to mock": 1.06, "migration and cell number class": "no change in migration or cell number", "mean nuclei count": 5416, "Call": "inactive"}
{"target": "FMC1 (formation of mitochondrial complex V assembly factor 1)", "reagent no.": 1, "migration relative to mock": 0.51, "migration and cell number class": "migration reduced", "mean nuclei count": 4730, "Call": "active"}
{"target": "FMC1 (formation of mitochondrial complex V assembly factor 1)", "reagent no.": 2, "migration relative to mock": 0.36, "migration and cell number class": "migration reduced", "mean nuclei count": 4248, "Call": "active"}
{"target": "FMC1 (formation of mitochondrial complex V assembly factor 1)", "reagent no.": 3, "migration relative to mock": 0.38, "migration and cell number class": "migration reduced", "mean nuclei count": 4698, "Call": "active"}
{"target": "FMC1 (formation of mitochondrial complex V assembly factor 1)", "reagent no.": 4, "migration relative to mock": 0.9, "migration and cell number class": "no change in migration or cell number", "mean nuclei count": 5884, "Call": "inactive"}
{"target": "GH1 (growth hormone 1)", "reagent no.": 1, "migration relative to mock": 1.1, "migration and cell number class": "no change in migration or cell number", "mean nuclei count": 5684, "Call": "inactive"}
{"target": "GH1 (growth hormone 1)", "reagent no.": 2, "migration relative to mock": 0.66, "migration and cell number class": "no change in migration or cell number", "mean nuclei count": 4155, "Call": "inactive"}
{"target": "GH1 (growth hormone 1)", "reagent no.": 3, "migration relative to mock": 0.55, "migration and cell number class": "migration reduced", "mean nuclei count": 4814, "Call": "active"}
{"target": "GH1 (growth hormone 1)", "reagent no.": 4, "migration relative to mock": 0.5, "migration and cell number class": "migration reduced", "mean nuclei count": 5502, "Call": "active"}
{"target": "MYL4 (myosin light chain 4)", "reagent no.": 1, "migration relative to mock": 1.09, "migration and cell number class": "no change in migration or cell number", "mean nuclei count": 5046, "Call": "inactive"}
{"target": "MYL4 (myosin light chain 4)", "reagent no.": 2, "migration relative to mock": 0.12, "migration and cell number class": "migration reduced", "mean nuclei count": 3426, "Call": "active"}
{"target": "MYL4 (myosin light chain 4)", "reagent no.": 3, "migration relative to mock": 0.67, "migration and cell number class": "no change in migration or cell number", "mean nuclei count": 4585, "Call": "inactive"}
{"target": "MYL4 (myosin light chain 4)", "reagent no.": 4, "migration relative to mock": 1.07, "migration and cell number class": "no change in migration or cell number", "mean nuclei count": 5630, "Call": "inactive"}
